PubChem BioAssay AID504804 | Drosophila RNAi Screening Center – 2011
Purpose: 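dsRNAs that improve Kc cell survival under doxorubicin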 (primary screen). Cell system: Drosophila Kc cells. Knock-down reagent: long dsRNA against Drosophila genes, 0.5 µg dsRNA per well. Duration: 96 h (48 h knock-down, then 48 h drug). Challenge: doxorubicin 5 µg/ml for 48 h, added 48 h after dsRNA. Read-out: 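Viability measured as cellular ATP by luminescence after 48 h knock-down then 48 h doxorubicin at 5 µg/ml; unnormalised plate counts for each replicate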. Direction: raw ATP luminescence: higher = more viable cells, protection from doxorubicin. Call rule: 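z-score of 2 or more over plate mean in both duplicates, retained only when retests and separate dsRNAs confirm the protection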.
In all, the deposit lists about 19,000 reagents; shown is a random part of those that have a named target and a result. Of all reagents, 47 (0.25%) are marked active. 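Signals are raw, not normalised; exact z-scores behind calls not deposited; actives needed confirmation, so some wells reaching 2 SD are inactive.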 Unmarked entries are inactive. A plus sign joins genes that one reagent is predicted to hit.

no.	gene knocked down	DRSC id	raw ATP luminescence, replicate 1	raw ATP luminescence, replicate 2
1	CG16953	DRSC15167	59390	46370
2	CG2750	DRSC19867	4.31e5	3.86e5
3	Prip	DRSC07044	62327	73790
4	CG10332 (retired record) + IM18	DRSC04064	61447	52343
5	CG14662	DRSC12248	55933	51290
6	peo	DRSC05995	71533	62437
7	CG5693	DRSC02878	70290	67243
8	tzn	DRSC11755	31360	39493
9	CG15130	DRSC02430	63780	58653
10	TwdlK	DRSC16045	26490	30360
11	CG4377	DRSC04467	72107	52283
12	Polr2B	DRSC16831	26960	20047
13	tweek	DRSC02433	66740	67340
14	tweek	DRSC02434	59090	62380
15	tweek	DRSC02785	50213	50533
16	CG34347	DRSC14047	2.21e5	2.07e5
17	CG34347	DRSC14305	45700	50430
18	CG34347	DRSC15104	27090	39270
19	CG34347	DRSC15105	19023	20577
20	Sgf29	DRSC04076	72083	63893
21	Sod3	DRSC07324	52260	44600
22	pasi2	DRSC16380	53717	56877
23	milt	DRSC00965	2.60e5	2.44e5
24	milt	DRSC00966	3.02e5	2.67e5
25	milt	DRSC02281	1.20e5	61673
26	Trpm	DRSC06629	61573	76100
27	Or33b	DRSC03387	57670	71553
28	CG7408	DRSC10841	63990	44613
29	CG8132	DRSC16383	62010	43500
30	Eip63E	DRSC08658	34883	34573

Continued; the last 7 above are carried over.
no.	gene knocked down	DRSC id	raw ATP luminescence, replicate 1	raw ATP luminescence, replicate 2
24	milt	DRSC00966	3.02e5	2.67e5
25	milt	DRSC02281	1.20e5	61673
26	Trpm	DRSC06629	61573	76100
27	Or33b	DRSC03387	57670	71553
28	CG7408	DRSC10841	63990	44613
29	CG8132	DRSC16383	62010	43500
30	Eip63E	DRSC08658	34883	34573
31	CG5043	DRSC02805	70430	69107
32	CG31797	DRSC02476	61620	72857
33	CG31797	DRSC02477	56563	58713
34	CG15734	DRSC19701	3.13e5	3.24e5
35	CG6465	DRSC16046	40617	24360
36	CG4914	DRSC10458	75637	53140
37	l(2)37Cb	DRSC02095	1.01e5	88970
38	Got1	DRSC07177	56713	73743
39	CG9839	DRSC16574	56407	24007
40	Set8	DRSC15473	58500	27837
41	Elal	DRSC16662	30787	47653
42	CG5521	DRSC15828	57840	52530
43	CG31802	DRSC02459	48393	60993
44	CAH15	DRSC04534	47397	48787
45	CG3473	DRSC01915	52523	59133
46	CG11779 + CG5835	DRSC15886	44980	54340
47	Cad96Ca	DRSC14220	94280	75010
48	Cad96Ca	DRSC16693	90380	58660
49	Daao1	DRSC06131	34780	68963
50	Cpr30F	DRSC02908	78613	62820
51	mys	DRSC18799	25070	36820
52	Prx6c	DRSC06080	47987	91703
53	CG31952	DRSC00428	33547	37167
54	AANATL7	DRSC18616	54630	44460
55	Pi4KIIIalpha	DRSC18655	38880	47830
56	CG14280	DRSC14761	61240	79170
57	Sfmbt	DRSC02552	1.10e5	66597
